The source of these data is article PMC4682653.

The target of series [1] is UvrY-His6 phosphorylated (UvrY-P) (Escherichia coli MG1655) (UniProt P0AED5). The experiment in a line: DNase I footprinting. To be noted: 0.25-0.7 uM, only upstream IR protected, 20 mM Tris-HCl pH 7.5, 10% glycerol, 50 mM KCl, 3 mM MgCl2, 1 mM DTT, 100 ug/mL BSA, 0.5 nM DNA, 30 min at 37 C (Fig 3 legend: room temperature), recombinant protein, residues 1-218, protein details: C-terminal His6, label: 5'-32P on one strand, probe letters rebuilt from the primers and the genome.

Series [2] has as its target T1, UvrY-His6 non-phosphorylated (Escherichia coli MG1655) (UniProt P0AED5).
T1 sequence (looked up): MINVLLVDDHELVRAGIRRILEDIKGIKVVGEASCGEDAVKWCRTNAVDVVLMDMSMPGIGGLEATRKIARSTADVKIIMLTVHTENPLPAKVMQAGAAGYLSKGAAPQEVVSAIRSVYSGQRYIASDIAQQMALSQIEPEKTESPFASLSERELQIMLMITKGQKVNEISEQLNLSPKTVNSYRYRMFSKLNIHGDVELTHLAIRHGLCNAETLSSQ
Kind of series: EMSA. To be noted: non-phosphorylated, about 7% UvrY-P may account for binding; 20 mM Tris-HCl pH 7.5, 10% glycerol, 50 mM KCl, 3 mM MgCl2, 1 mM DTT, 100 ug/mL BSA, 0.5 nM DNA, 30 min at 37 C (Fig 3 legend: room temperature); recombinant protein; residues 1-218; protein details: C-terminal His6; label: 5'-32P; probe letters rebuilt from the primers and the genome.

Series [3] has as its target UvrY-His6 phosphorylated (UvrY-P) (Escherichia coli MG1655) (UniProt P0AED5). The experiment in a line: EMSA. The conditions noted are these: in vitro phosphorylated; 20 mM Tris-HCl pH 7.5, 10% glycerol, 50 mM KCl, 3 mM MgCl2, 1 mM DTT, 100 ug/mL BSA, 0.5 nM DNA, 30 min at 37 C (Fig 3 legend: room temperature); recombinant protein; residues 1-218; protein details: C-terminal His6; label: 5'-32P; probe letters rebuilt from the primers and the genome.

For at least one entry, the source does not settle the construct or the ends of the probe. For part of these data: A weaker result is weaker than the reference pair of the same experiment. For part of these data: Where a protein sequence is shown, tags need not be part of it. For part of these data: Whether high values mean tight binding is not given here for every scale.

On to “CAGGAAAATCTGATTGGTCATCTGGTGACTCAGAAAAGGCTAAAACTGCCGCCCACACTATTTATCGCGACGCTGGAAGAAGAGTTAGAGGTCATCTCGGTGTGTAATCTCTCCGGTGAAGTGTGCAAAGAGACGCTGGGAACACGTAAACGGACGCATTTAGCCTCAAATCTTGCGGAATTCCTTAATCAACTTAAGCCTCTTCTGTAATCCAAATACCCCATCTGGTTGTGAGAGATCTCTTACAGACTCTGTAGGAGATCGCCAGGAAATAAGCGAATACTTAAAAAGATAAGAATCGTTATTTTCATTTAAAATCAAAATGTTGATTGTTAATTCTTAACTTTCATATGAAATTTTCCTTAAGGCATTGTCTGTAAGCGCCTTGTAAGACTTCGCGAAAAAGACGATTCTATCTTCGTCGACAGGGAGTCAGACAACGAAGTGAACATCAGGATGATGACAC (double strand) [csrB footprint DNA (-420 to +46)]”, for which the binding result in series [1] is “binds”.

Regarding “CAGGCGCACTCATCACAAAATGCGTCTGTTGATAATTCAAATTAGTCAAAGCGGTCGTCTCCGTCAGTCAAAGCTTTGTGGCGATTATACCTGAACCATAATAAAAGGCGGATTTTTCGGCGTGAGCGTTGTAAGTAAAAGCCATACGCTTTGTGAGACATTGCCGATAGTCTTTATGCGAAATAGCAGAGAAAATTCTGCGATGCATGTCAAATAAGCTATATAAATCAGTGAATTGCTTTTATATAAAACTCTGAAAATGTGCAAATACTGATGGCGGTTGATTGTTTGTTTAAAGCAAAGGCGTAAAGTAGCACCCATAGAGCGAGGACGCTAACAGGAACAATGACTCAGGATGAGGGTCAGGAGCGCCAGGAGGCGAAGACAGAGGATTGTCAGGAAGACAAACGTCCGGAGAC (double strand) [csrC footprint DNA (-319 to +100)]”, the binding result in series [1] is given as “binds”.

With “CTGGCGCTCCTGACCCTCATCCTGAGTCATTGTTCCTGTTAGCGTCCTCGCTCTATGGGTGCTACTTTACGCCTTTGCTTTAAACAAACAATCAACCGCCATCAGTATTTGCACATTTTCAGAGTTTTATATAAAAGCAATTCACTGATTTATATAGCTTATTTGACATGCATCGCAGAATTTTCTCTGCTATTTCGCATAAAGACTATCGGCAATGTCTCACAAAGCGTATGGCTTTTACTTACAACGCTCACGCCGAAAAATCCGCCTTTTATTATGGTTCAGGTATAATCGCCACAAAGC (double strand) [csrC EMSA probe (-247 to +56)]”, the binding result in series [2] is recorded as “binds more weakly”. Also, the binding signal (fold affinity vs non-phosphorylated UvrY) in series [3] turned out to be 2.

Consider “GCGGAATTCCTTAATCAACTTAAGCCTCTTCTGTAATCCAAATACCCCATCTGGTTGTGAGAGATCTCTTACAGACTCTGTAGGAGATCGCCAGGAAATAAGCGAATACTTAAAAAGATAAGAATCGTTATTTTCATTTAAAATCAAAATGTTGATTGTTAATTCTTAACTTTCATATGAAATTTTCCTTAAGGCATTGTCTGTAAGCGCCTTGTAAGACTTCGCGAAAAAGACGATTCTATCTTCGTCGACAGGGAGTCAGACAACGAAGTGAACATCAGGATGATGACACTTC (double strand) [csrB EMSA probe (-246 to +49)]”, for which the binding result in series [2] is recorded as “binds more weakly”. In addition, the binding signal (fold affinity vs non-phosphorylated UvrY) in series [3] stood at 2.
